Source: PubChem BioAssay AID540276 (National Center for Advancing Translational Sciences (NCATS), 2011)
In all, about 300,000 compounds went through this assay and about 5,400 (1.8%) were called active. The shares of active, inactive and inconclusive entries below differ from those in the screen. The call rests on the fitted dose curve; tested in HEK293 cells. Where the call is inconclusive, the potency comes from a doubtful curve fit.

Experiment: qHTS for inhibitors of binding or entry into cells for Marburg Virus
Settings: Marburg virus pseudotyped entry inhibition, cell reporter; series mostly up to 37.8 µM
Potency means the concentration at half of the fitted maximal effect.

Question: For `COc1ccc(NC(=O)COC(=O)CNC(=O)COc2ccccc2)cc1OC`, which Potency is on record?
Answer: The Potency was “inactive”.

Question: Which Potency does the source give for `NC(=O)c1c(NC(=O)C2CCCO2)sc2c1CCCC2` (stereo unspecified) here?
Answer: The Potency was inconclusive: 39.8 µM [activator, partial curve, poor fit].

Question: For `O=C(CNC(=O)c1cccc(F)c1)N/N=C/c1cc(Br)ccc1OC(=O)/C=C/c1ccco1`, which Potency is on record?
Answer: The Potency was active: 18.3 µM.

Question: With `CCN(CC)CCCNC(=O)c1oc2ccc(S(=O)(=O)N3CC(C)CC(C)C3)cc2c1C` (stereo unspecified) as the compound, how does the Potency read?
Answer: Its Potency is active: 10 µM.

Question: For `CCOC(=O)C1CCCC12Nc1cccc3cccc(c13)N2` (stereo unspecified), which Potency is on record?
Answer: The Potency was “inactive”.

Question: With `O=C(N/N=C/C(c1ccccc1)c1ccccc1)c1ccccc1F` as the compound, how does the Potency read?
Answer: The Potency was inconclusive: 35.5 µM [inhibitor, single point].

Question: For `Cc1cc2ccccc2n1CCNC(=O)c1cccc(Br)c1`, which Potency is on record?
Answer: Its Potency is inconclusive: 14.1 µM [inhibitor, single point].

Question: Which Potency does the source give for `CCOC(=O)NC1(Nc2ccc(C)cc2)Oc2ccccc2O1` here?
Answer: The Potency was “inactive”.

Question: With `Cc1c(Cc2ccccc2)c(NCCN(C)C)n2c(nc3ccccc32)c1C#N` as the compound, how does the Potency read?
Answer: Its Potency is inconclusive: 12.6 µM [inhibitor, partial curve, poor fit].

Question: With `COc1ccc(-n2nc(C(=O)NCC(=O)NCCc3ccc(OC)c(OC)c3)c3ccccc3c2=O)cc1Cl` as the compound, how does the Potency read?
Answer: Its Potency is inconclusive: 1.12 µM [inhibitor, partial curve, poor fit].

Question: Which Potency does the source give for `Cc1oc(-c2ccc(Cl)cc2)nc1CN1CCC(C(=O)NCC2CCCO2)CC1` (stereo unspecified) here?
Answer: The Potency was “inactive”.

Question: Which Potency does the source give for `COc1ccccc1C(CNC(=O)c1cccc(S(=O)(=O)Nc2ccc(C)cc2)c1)N(C)C` (stereo unspecified) here?
Answer: Its Potency is inconclusive: 35.5 µM [inhibitor, single point].

Question: With `COc1ccc(CCNC(=O)CSc2cn(Cc3ccccc3)c3ccccc23)cc1OC` as the compound, how does the Potency read?
Answer: Its Potency is “inactive”.

Question: With `CC(=O)c1c(C)[nH]c(C(=O)Nc2ccc(C)c(S(=O)(=O)N(C)C)c2)c1C` as the compound, how does the Potency read?
Answer: Its Potency is inconclusive: 1.26 µM [activator, partial curve, poor fit].

Question: Which Potency does the source give for `CC(C)(C)c1ccc(C2=NC(=O)C(CC(=O)O)S2)cc1` (stereo unspecified) here?
Answer: The Potency was “inactive”.

Question: For `Cc1ccc(S(=O)(=O)Nc2ccccc2-c2ccccc2NS(=O)(=O)c2ccc(C)cc2)cc1`, which Potency is on record?
Answer: Its Potency is inconclusive: 17.8 µM [inhibitor, partial curve, poor fit].

Question: With `CC(=O)c1ccc(Oc2ccc(C(C)=O)cc2)cc1` as the compound, how does the Potency read?
Answer: Its Potency is “inactive”.

Question: For `COc1ccc(NS(=O)(=O)c2cc(NC(=O)CCSc3ccccc3)ccc2OC)cc1`, which Potency is on record?
Answer: The Potency was inconclusive: 35.5 µM [inhibitor, single point].

Question: With `O=C(COc1ccccc1Cl)NC(=S)Nc1ccc(CN2CCOCC2)cc1` as the compound, how does the Potency read?
Answer: The Potency was “inactive”.

Question: With `Cc1csc(NC(=O)CS(=O)(=O)Cc2ccccc2)n1` as the compound, how does the Potency read?
Answer: Its Potency is inconclusive: 35.5 µM [activator, single point].

Question: Which Potency does the source give for `COc1cc(CNC(C)c2ccccc2)cc(Br)c1OCc1ccccc1` (stereo unspecified) here?
Answer: The Potency was active: 7.94 µM.

Question: For `CCN(c1ccccc1)S(=O)(=O)c1ccc(NC(=O)c2cc(=O)c3cc(C)cc(C)c3o2)cc1`, which Potency is on record?
Answer: Its Potency is inconclusive: 2.24 µM [activator, partial curve, poor fit].

Question: With `O=C(CN1CCCCCC1)NN(Cc1ccccc1)c1ccccc1` as the compound, how does the Potency read?
Answer: Its Potency is inconclusive: 12.6 µM [inhibitor, single point].

Question: With `COc1cccc(NC(=O)N2CCC(NC(=O)C(Cc3cccc(C)c3)NC(C)=O)CC2)c1` (stereo unspecified) as the compound, how does the Potency read?
Answer: The Potency was inconclusive: 3.55 µM [activator, single point].

Question: Which Potency does the source give for `O=C(NCc1cccnc1)/C(=C/c1ccc(-c2cccc(C(F)(F)F)c2)o1)NC(=O)c1ccccc1` here?
Answer: The Potency was inconclusive: 1.26 µM [inhibitor, partial curve, poor fit].

Question: With `O=C(Nc1ccccc1C(=O)N/N=C/c1ccccc1)c1ccco1` as the compound, how does the Potency read?
Answer: The Potency was inconclusive: 5.62 µM [activator, single point].

Question: With `Cc1c(Br)c([N+](=O)[O-])nn1CC(=O)NCc1cccs1` as the compound, how does the Potency read?
Answer: Its Potency is inconclusive: 3.55 µM [activator, single point].

Question: For `O=c1c(-c2cccc(Cl)c2)c[nH]n1-c1ccccc1`, which Potency is on record?
Answer: Its Potency is inconclusive: 2.24 µM [inhibitor, partial curve, poor fit].

Question: For `c1ccc2c(c1)OCC(c1csc3ncnc(N4CCCC4)c13)O2` (stereo unspecified), which Potency is on record?
Answer: Its Potency is inconclusive: 35.5 µM [inhibitor, single point].

Question: Which Potency does the source give for `CCOC(=O)/C(=C/c1ccc(N2CCC(c3ccccc3)=N2)cc1)C(C)=O` here?
Answer: Its Potency is “inactive”.

Question: Which Potency does the source give for `CC1CCCCN1C(=O)CSc1nc(N)nc(N)n1` (stereo unspecified) here?
Answer: The Potency was “inactive”.

Question: With `CCCC(c1nnnn1Cc1ccc2c(c1)OCO2)N1CCC(C(N)=O)CC1` (stereo unspecified) as the compound, how does the Potency read?
Answer: The Potency was “inactive”.

Question: With `COc1ccc(/C=N/Nc2ccccn2)cc1O` as the compound, how does the Potency read?
Answer: Its Potency is “inactive”.

Question: Which Potency does the source give for `COc1cccc(NC(=O)c2ccccc2-c2nc(-c3cccc(C)c3)no2)c1` here?
Answer: The Potency was inconclusive: 35.5 µM [inhibitor, single point].

Question: Which Potency does the source give for `COc1ccc(-n2nc(C(=O)N(C)c3cc(C)ccc3C)c3c4ccccc4n(C)c3c2=O)cc1Cl` here?
Answer: Its Potency is inconclusive: 5.01 µM [activator, partial curve, poor fit].

Question: With `CNc1nc(N)c([N+](=O)[O-])c(Nc2cccc(F)c2)n1` as the compound, how does the Potency read?
Answer: The Potency was “inactive”.

Question: For `O=C(c1cc2ccccc2o1)N1CCN(c2ccccn2)CC1`, which Potency is on record?
Answer: The Potency was “inactive”.

Question: With `COc1ccc(S(=O)(=O)N2CCCCC2)cc1NC(=O)c1cnc(C)cn1` as the compound, how does the Potency read?
Answer: Its Potency is “inactive”.

Question: With `COc1ccc(CCNC(=O)c2cnc3ccccc3n2)cc1` as the compound, how does the Potency read?
Answer: Its Potency is “inactive”.

Question: Which Potency does the source give for `O=S1(=O)C=C(Oc2ccc(F)cc2)c2ccccc21` here?
Answer: Its Potency is “inactive”.

Question: With `COc1cccc(NC(=O)CN(C)C(C)C(=O)Nc2cc([N+](=O)[O-])ccc2Cl)c1` (stereo unspecified) as the compound, how does the Potency read?
Answer: Its Potency is “inactive”.

Question: For `Cc1ccc(/C=C2/NC(=O)N(Cc3ccc(Br)cc3)C2=O)o1`, which Potency is on record?
Answer: The Potency was “inactive”.

Question: With `CSCCC(NC(=O)c1cc([N+](=O)[O-])ccc1Cl)C(=O)O` (stereo unspecified) as the compound, how does the Potency read?
Answer: Its Potency is “inactive”.

Question: Which Potency does the source give for `CCc1cc(=O)oc2c3c(c(Cl)cc12)OCN(Cc1cccc(OC)c1)C3` here?
Answer: The Potency was “inactive”.

Question: Which Potency does the source give for `CC1CCN(c2oc(-c3ccco3)nc2S(=O)(=O)c2ccccc2)CC1` here?
Answer: Its Potency is “inactive”.

Question: For `Cc1nc2ccc(NC(=O)CCC3CCCC3)cc2s1`, which Potency is on record?
Answer: The Potency was “inactive”.

Question: Which Potency does the source give for `CN(C)C(CNC(=O)CNC(=O)c1ccc2ccccc2c1)c1ccccc1` (stereo unspecified) here?
Answer: The Potency was inconclusive: 14.1 µM [inhibitor, single point].

Question: Which Potency does the source give for `COc1ccc(CC(=O)Nc2nn(C)c3nc4c(C)cccc4cc23)cc1` here?
Answer: Its Potency is inconclusive: 3.16 µM [inhibitor, single point].

Question: With `CCc1nc(-c2cc3ccc(C)cc3[nH]c2=O)no1` as the compound, how does the Potency read?
Answer: The Potency was “inactive”.

Question: Which Potency does the source give for `O=C(Nc1ccc(S(=O)(=O)Nc2ncccn2)cc1)c1cncc(Br)c1` here?
Answer: The Potency was inconclusive: 2.82 µM [activator, partial curve, poor fit].

Question: Which Potency does the source give for `CN(C)c1ccc(NC(=O)CSc2nc(N)c(C(=O)Nc3ccc(N(C)C)cc3)s2)cc1` here?
Answer: Its Potency is inconclusive: 22.4 µM [inhibitor, single point].

Question: For `Cc1cc(Cl)ccc1NC(=O)COC(=O)c1nc2nccc(C)n2n1`, which Potency is on record?
Answer: The Potency was inconclusive: 0.891 µM [inhibitor, partial curve, poor fit].

Question: With `CCn1c(-c2ccccn2)nc2cc(S(=O)(=O)N(C)C)ccc21` as the compound, how does the Potency read?
Answer: The Potency was “inactive”.

Question: For `Nc1nc(SCc2ccccc2)c2ncn(C3CCCCC3)c2n1`, which Potency is on record?
Answer: Its Potency is inconclusive: 10 µM [inhibitor, partial curve, poor fit].

Question: Which Potency does the source give for `CNc1oc(-c2ccccc2Cl)nc1P(=O)(c1ccccc1)c1ccccc1` here?
Answer: The Potency was inconclusive: 22.4 µM [inhibitor, partial curve, poor fit].

Question: Which Potency does the source give for `COc1ccc(CN2CCN(Cc3cc(=O)oc4cc(C)ccc34)CC2)c(OC)c1OC` here?
Answer: The Potency was active: 14.1 µM.

Question: For `CC1=NN(/C(=N\c2nnc(C)s2)Nc2ccc(C(C)(C)C)cc2)[C@H](c2ccc(C)cc2)S1`, which Potency is on record?
Answer: The Potency was active: 8.2 µM.

Question: Which Potency does the source give for `O=C(O)CC1SC(N/N=C/c2ccc(Br)cc2)NC1=O` (stereo unspecified) here?
Answer: The Potency was “inactive”.

Question: For `CC1(CC(=O)O)SC(=O)NC1=O` (stereo unspecified), which Potency is on record?
Answer: Its Potency is inconclusive: 1.64 µM [inhibitor, partial curve, poor fit].

Question: Which Potency does the source give for `COc1ccc(C)cc1NC(=O)C(OC(=O)CNC(=O)c1ccc(Br)cc1)c1ccccc1` (stereo unspecified) here?
Answer: Its Potency is “inactive”.

Question: For `CN1N=C(/C=C/c2ccccc2)CCC1=O`, which Potency is on record?
Answer: Its Potency is inconclusive: 35.5 µM [activator, single point].

Question: For `COc1ccc(F)cc1S(=O)(=O)NCC1CCCO1` (stereo unspecified), which Potency is on record?
Answer: Its Potency is inconclusive: 1.26 µM [inhibitor, single point].

Question: For `NNc1ccc(Cl)nn1`, which Potency is on record?
Answer: The Potency was “inactive”.

Question: Which Potency does the source give for `Cc1ccc(CN2C(=O)NC(=O)C3(Cc4c(nc5ccccn5c4=O)N4CCCCCC43)C2=O)cc1` (stereo unspecified) here?
Answer: The Potency was inconclusive: 11.6 µM [inhibitor, partial curve, poor fit].

Question: With `COC(=O)c1nn(Cc2ccccc2)c(=O)c2ccccc12` as the compound, how does the Potency read?
Answer: Its Potency is “inactive”.

Question: With `O=C(O)c1ccc(N/N=C/c2cc(Br)cs2)cc1` as the compound, how does the Potency read?
Answer: Its Potency is active: 5.01 µM.

Question: With `O=C(N/N=C/C(Br)=C/c1ccccc1)c1ccccc1F` as the compound, how does the Potency read?
Answer: Its Potency is inconclusive: 2 µM [inhibitor, partial curve, poor fit].

Question: For `O=C(COc1ccccc1Cl)Nc1ccc2[nH]c(=O)[nH]c2c1`, which Potency is on record?
Answer: Its Potency is “inactive”.

Question: Which Potency does the source give for `CCCCNc1nc2c(c(=O)n(Cc3ccc(Cl)cc3)c(=O)n2C)n1C` here?
Answer: The Potency was inconclusive: 35.5 µM [inhibitor, single point].

Question: Which Potency does the source give for `O=C(NC1CCCCCCC1)c1cc(COc2ccc3ncccc3c2)on1` here?
Answer: The Potency was “inactive”.

Question: With `CN(C)c1ccc(C(CNS(=O)(=O)c2ccc(F)cc2)c2c[nH]c3ccccc23)cc1` (stereo unspecified) as the compound, how does the Potency read?
Answer: Its Potency is “inactive”.

Question: With `C[C@H](NC(=O)C1CCN(C(=O)[C@H](Cc2ccccc2)NC(=O)OC(C)(C)C)CC1)C(=O)O` as the compound, how does the Potency read?
Answer: Its Potency is “inactive”.

Question: With `Cc1nnc(NC(=O)c2cccc(S(=O)(=O)N3CCc4ccccc43)c2)s1` as the compound, how does the Potency read?
Answer: Its Potency is “inactive”.

Question: With `O=C(O)CCc1ccc(-c2cccs2)n1NC(=O)c1ccc(Cl)cc1` as the compound, how does the Potency read?
Answer: Its Potency is “inactive”.

Question: With `Cc1sc2nc3ccc(N4CCCCC4)nn3c(=O)c2c1C` as the compound, how does the Potency read?
Answer: The Potency was inconclusive: 1.26 µM [activator, full curve, poor fit].

Question: Which Potency does the source give for `CN1c2ccc([N+](=O)[O-])cc2N(C)C1(C)c1ccccc1` (stereo unspecified) here?
Answer: The Potency was inconclusive: 1.58 µM [inhibitor, full curve, poor fit].
